Results reported in PMC2920845.
These are yes or no findings as the source states them, for the method shown. In cells and extracts the contact can be indirect. Some results given as binding are weak or reduced against the parent protein; the word gives no strength.

Protein sequences, listed by entry. Tags and fused reporters are not part of them. Residues count along the entry.
UniProt P9WHT9, residues 58-291: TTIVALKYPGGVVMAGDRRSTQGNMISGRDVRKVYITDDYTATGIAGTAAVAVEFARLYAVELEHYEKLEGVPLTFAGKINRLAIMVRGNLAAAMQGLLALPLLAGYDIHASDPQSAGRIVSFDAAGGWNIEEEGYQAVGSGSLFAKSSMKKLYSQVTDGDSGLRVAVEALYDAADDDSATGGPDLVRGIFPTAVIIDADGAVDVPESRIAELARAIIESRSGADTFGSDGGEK
UniProt P9WHU1: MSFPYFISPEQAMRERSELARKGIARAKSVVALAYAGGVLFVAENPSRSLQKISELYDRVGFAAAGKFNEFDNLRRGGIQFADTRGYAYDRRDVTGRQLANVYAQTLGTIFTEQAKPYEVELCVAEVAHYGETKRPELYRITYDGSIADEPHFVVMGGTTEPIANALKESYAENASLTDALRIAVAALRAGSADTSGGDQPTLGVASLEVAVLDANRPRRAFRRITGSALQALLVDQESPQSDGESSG

Biological target: PrcBHis6 (wild-type PrcB with a histidine tag) (M. tuberculosis) (UniProt P9WHT9)
Assay: co-IP

PrcA (proteasome core alpha subunit) (from UniProt P9WHU1 1-248)
binding: binds
